According to PubChem BioAssay AID651640 (Broad Institute, 2012):
Screen size: about 350,000 compounds; about 6,000 (1.7%) were called active. Inconclusive results, whose numbers are uncertain, are shown with a selection of clear calls. No stated cut-off is given here; in the data, active means CPE inhibition above about 20% (passing the limit was not always enough); inconclusive means no clear call, values can overlap the other calls; tested in BHK-21 cells.

Experiment: protection of cells from dengue 2 killing – plate reader, single concentration, primary screen (AID 651640);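 further: 0% = median of neutral control wells and 100% = median of positive control wells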
Conditions: DENV2-infected cells, cytopathic effect rescue, at 9.99 µM, stronger effect = higher value

| SMILES | CPE inhibition |
| --- | --- |
| C[C@H]1CCCCO[C@H](CN(C)S(=O)(=O)c2cccs2)[C@@H](C)CN([C@@H](C)CO)C(=O)c2cc(NC(=O)c3ccccc3)ccc2O1 | active: 35.8% |
| Cc1sc(NC(=O)C2CSC3(C)CCC(=O)N23)nc1-c1ccc(F)cc1 (stereo unspecified) | inconclusive: 41.1% |
| CCC(=O)N1[C@@H]2CN(S(=O)(=O)c3ccccc3F)c3ccccc3[C@@H]2[C@@H]1CO | inconclusive: 25.1% |
| COC(=O)C[C@H]1c2cc(C(F)(F)F)ccc2S(=O)(=O)N1C1CCCC1 | inconclusive: 54.2% |
| O=C(COC(=O)c1cc(Cl)ccc1[N+](=O)[O-])NCc1ccc(Cl)cc1Cl | inconclusive: 32.2% |
| COc1cc(N=Nc2ccc(Br)cc2)cc(C=O)c1O | inactive: 7.15% |
| N#Cc1cccc(-c2ccc3c(c2)[C@@H]2[C@@H](CCN2S(=O)(=O)c2cccc(F)c2)[C@H](CO)N3)c1 | inactive: 5.83% |
| CCOc1cccc2sc(N3CCN(C(=O)c4ccc5ncsc5c4)CC3)nc12 | inactive: -9.03% |
| C=CCC[C@@H](CCCCC)OC(=O)/C=C/[C@@H](O)[C@H](O)C[C@@H](O)CC=C | inconclusive: 38.5% |
| CCOc1ccccc1NC(=O)CN(c1cc(C)cc(C)c1)S(=O)(=O)c1c(C)noc1C | inconclusive: 22.4% |
| COCC(=O)N1[C@H](CO)[C@H](c2ccc(-c3cccc(F)c3)cc2)[C@@H]1C#N | inconclusive: 40.2% |
| Cc1cccc(CCNC(=O)CCS(=O)(=O)c2cc3c(cc2Cl)NC(=O)CO3)c1 | inconclusive: 26.5% |
| C[C@@H]1CN([C@@H](C)CO)S(=O)(=O)c2ccc(C3=CCCCC3)cc2O[C@@H]1CN(C)C(=O)Cc1cccnc1 | inactive: 0.646% |
| COc1ccc(-c2cc(Cl)cc3c(=O)c4ccccc4n(C)c23)cc1F | inconclusive: 39.2% |
| CN(C)CC(=O)N1[C@H](CO)[C@@H](c2ccccc2)C12CN(CC1CCOCC1)C2 | active: 20.5% |
| CN(C)C(=O)CCC(=O)N1CCCC(N2CCN(c3cccc(C(F)(F)F)c3)CC2)C1 (stereo unspecified) | inactive: 2% |
| Cc1ccc(NC(=O)N2CC(C)OC(C)C2)cc1[N+](=O)[O-] (stereo unspecified) | inconclusive: 27% |
| CCOC(=O)c1ccc(NC(=O)c2nc[nH]c2C(=O)NC[C@@H](C)O)cc1 | inactive: -1.28% |
| CN(C)c1ccc(C=C2C=Cc3ccccc32)cc1 | inactive: -3.45% |
| C=C[C@H]1CN2CC[C@H]1C[C@H]2[C@H](O)c1ccnc2ccc(OC)cc12 | inconclusive: 20.4% |
| Cc1ccc(NC(=S)Nc2cccc3cnccc23)cc1 | active: 71.9% |
| Cc1sc(NC(=O)C2=COCCO2)nc1-c1ccc(F)cc1 | inconclusive: 31.2% |
| CCN1CCC(NCCc2ccc(F)cc2)CC1 | inconclusive: 20.5% |
| O=C(C[C@@H]1C=C[C@@H](NC(=O)CN2CCOCC2)[C@@H](CO)O1)NC1CCCCC1 | inconclusive: 29.3% |
| Cc1cccc(C)c1OCC(=O)Nc1cccc(S(=O)(=O)N2CCCCCC2)c1 | inconclusive: 24.4% |
| CCN(CC)C(=O)C(=O)c1cn(CC(=O)NCC2CCCO2)c2ccccc12 (stereo unspecified) | inactive: 3.64% |

| SMILES | CPE inhibition |
| --- | --- |
| O=C(/C=C(O)/C=C/c1ccc(O)cc1)/C=C/c1ccc(O)cc1 | active: 61.1% |
| CCOC(=O)CN(c1ccccc1C)S(=O)(=O)c1ccc(Cl)cc1 | inconclusive: 37.4% |
| COc1ccc(CN2[C@H](CO)[C@@H]3c4ccccc4N(C(=O)C4CC4)C[C@@H]32)cc1 | active: 26.1% |
| C=CCc1cc(/C=C2/NC(=O)N(CC(=O)OC)C2=O)cc(OC)c1O | inconclusive: 25.5% |
| Cc1ccc2nc(-c3ccc(NC(=O)COC(=O)c4ccc([N+](=O)[O-])o4)cc3)sc2c1 | inconclusive: 65.4% |
| O=C(C[C@H]1C/C=C/CC[C@H](Cc2ccc(F)cc2)C(=O)O[C@H](c2ccccc2)CNC1=O)NCCO | inconclusive: 34.3% |
| COCC(=O)N(C)C[C@@H]1Oc2ncc(C#C[C@@H](C)O)cc2C(=O)N([C@H](C)CO)C[C@H]1C | inactive: 6.2% |
| CCCCNC(=O)c1onc(CS(=O)(=O)c2ccccn2)c1C(=O)NCCCC | active: 40% |
| CC(C)NC(=O)N[C@H]1CC[C@@H](CCNC(=O)C2CC2)O[C@H]1CO | inactive: -0.718% |
| Cc1occc1C(=O)N1CCCC(N2CCN(c3ccccc3F)CC2)C1 (stereo unspecified) | active: 26.3% |
| O=C(C[C@@H]1CC[C@H](NS(=O)(=O)c2ccc(F)cc2)[C@@H](CO)O1)N1CCC(Cc2ccccc2)CC1 | inactive: 2.1% |
| CC(C)NC(=O)N(C)C[C@H]1Oc2c(NC(=O)NC3CCCCC3)cccc2C(=O)N([C@@H](C)CO)C[C@H]1C | inactive: 5.07% |
| C[C@H](CO)N1C[C@H](C)[C@H](CN(C)C(=O)NC2CCCCC2)Oc2ccc(NC(=O)Nc3cccc4ccccc34)cc2CC1=O | inactive: -3.88% |
| C#CCN1CC(COCCCC)Oc2cccc(F)c2S1(=O)=O (stereo unspecified) | inconclusive: 21.5% |
| CCOc1ccccc1-c1nnc(CS(=O)(=O)c2ccccc2)o1 | active: 52.9% |
| COc1ccc(C(CNS(=O)(=O)c2ccc(NC(C)=O)c(OC)c2)N2CCCC2)cc1 (stereo unspecified) | active: 35.8% |
| CC(C)c1ccc2oc(=O)cc(CN3CCN(Cc4ccccc4)CC3)c2c1 | inconclusive: 20.2% |
| COc1cccc(NC(=O)COc2coc(CN3CCN(c4ccccc4)CC3)cc2=O)c1 | inactive: -9.63% |
| O=C(c1ccccc1F)N1C[C@H]2[C@@H](c3ccccc31)[C@H](CO)N2C(=O)c1ccc(F)cc1 | inconclusive: 61.8% |
| COCCNc1nc2cc(-c3ccc(F)cc3)sc2c(=O)n1C | inactive: 1.43% |
| COC(=O)[C@]12CCCCC=C1N(Cc1ccc(Cl)cc1Cl)C(=O)[C@H](CC(=O)NCC1CCCCC1)C2 | inconclusive: 20.4% |
| O=C(NCC1CCCCC1)c1cc([N+](=O)[O-])ccc1N1CCOCC1 | inconclusive: 21.4% |
| Cc1noc(C)c1NC(=O)N(C)C[C@H]1Oc2ccc(NS(=O)(=O)c3cn(C)cn3)cc2CC(=O)N([C@H](C)CO)C[C@@H]1C | active: 47.9% |
| O=C(c1ccc(-n2nc(C(F)(F)F)c3c2CCCC3)cc1)N1CCOCC1 | inactive: -8.83% |
| C[C@H]1CN([C@@H](C)CO)C(=O)c2cc(NC(=O)Cn3cnnn3)ccc2O[C@H]1CN(C)Cc1ccc(-c2ccccc2)cc1 | active: 33.1% |
| CN(C(=O)COC(=O)c1ccc(Cl)c(S(=O)(=O)N2CCCCCC2)c1)C1CCS(=O)(=O)C1 (stereo unspecified) | inconclusive: 32.9% |

A different layout for some results above.
N#Cc1cccc(-c2ccc3c(c2)[C@@H]2[C@@H](CCN2S(=O)(=O)c2cccc(F)c2)[C@H](CO)N3)c1
  CPE inhibition: inactive: 5.83%
C[C@@H]1CN([C@@H](C)CO)S(=O)(=O)c2ccc(C3=CCCCC3)cc2O[C@@H]1CN(C)C(=O)Cc1cccnc1
  CPE inhibition: inactive: 0.646%
CN(C)c1ccc(C=C2C=Cc3ccccc32)cc1
  CPE inhibition: inactive: -3.45%
Cc1cccc(C)c1OCC(=O)Nc1cccc(S(=O)(=O)N2CCCCCC2)c1
  CPE inhibition: inconclusive: 24.4%

In a second layout: 2 of the compounds above.
SMILES | CPE inhibition
Cc1ccc(NC(=O)N2CC(C)OC(C)C2)cc1[N+](=O)[O-] (stereo unspecified) | inconclusive: 27%
Cc1cccc(C)c1OCC(=O)Nc1cccc(S(=O)(=O)N2CCCCCC2)c1 | inconclusive: 24.4%

Later entries:

| SMILES | CPE inhibition |
| --- | --- |
| CN1C(=O)c2cc(NS(=O)(=O)c3cccc(F)c3)ccc2OC[C@@H]2O[C@@H](CC(=O)O)CC[C@@H]21 | inconclusive: 27.5% |
| N#Cc1ccccc1OCC(=O)OCC(=O)NC1CCCCC1 | inconclusive: 30.2% |
| O=C(NCCc1ccc(Cl)cc1)C1CC(=O)N(C2CCCC2)C1 (stereo unspecified) | inactive: 17.5% |
| Cc1nc2nc(SCc3ccccc3)nn2c(C)c1C | inconclusive: 22% |
| Cc1ccc(NC(=O)CSc2ccccc2)cc1S(=O)(=O)N1CCOCC1 | inconclusive: 56.1% |
| O=C1c2ccccc2C(=O)N1CCCCN(C(=O)c1cc([N+](=O)[O-])cc([N+](=O)[O-])c1)c1ccc(Cl)cc1 | inconclusive: 31.5% |
| C[C@@H]1CCC(=O)N(CC[C@H](N=[N+]=[N-])c2ccccc2)CC1 | inconclusive: 62.3% |
| C[C@H]1CN([C@@H](C)CO)S(=O)(=O)c2ccc(C#CC(C)(C)O)cc2O[C@@H]1CN(C)C | inconclusive: 20.1% |
| CCOc1ccccc1NC(=O)C1CCCN(S(=O)(=O)c2ccccc2)C1 (stereo unspecified) | inconclusive: 33.7% |
| C#CCN(C[C@H]1[C@H](OC(=O)Nc2c(C)noc2C)[C@H](OC(=O)Nc2c(C)noc2C)C[C@@H](C(=O)OC)[C@H]1C(=O)OC)S(=O)(=O)c1ccc(C)cc1 | active: 69.5% |
| O=C(C[C@H]1CC[C@@H]2[C@H](COC[C@H](O)CN2C(=O)Nc2ccccc2)O1)NCCc1ccncc1 | inconclusive: 45.9% |
| CC(C)C(NS(=O)(=O)c1ccccc1)C(=O)N1CCN(C(=O)c2ccco2)CC1 (stereo unspecified) | inconclusive: 70% |
| O=C(CN1C(=O)NC2(CCCC2)C1=O)Oc1ccc2ccc(=O)oc2c1 | inactive: 0.154% |
| Cc1cccc(C)c1NC(=O)C(=O)NCC1CCCN1S(=O)(=O)c1cccs1 (stereo unspecified) | inconclusive: 46.1% |
| Cc1ccc(NC(=O)CSc2nnc(-c3cc(C)[nH]n3)n2N)cc1 | inconclusive: 25.3% |
| CNC[C@H]1Oc2ccc(NC(=O)Cn3cnnn3)cc2C(=O)N([C@@H](C)CO)C[C@H]1C | active: 31.7% |
| S=C(Nc1ccc2cn[nH]c2c1)Nc1ccc(Cl)cc1Cl | inconclusive: 41.8% |
| CC(C)OC(=O)N(C)C[C@@H]1OCc2cn(nn2)CCCC(=O)N([C@H](C)CO)C[C@@H]1C | active: 83.5% |
| Cc1noc(C)c1S(=O)(=O)Nc1ccc2c(c1)C(=O)N([C@@H](C)CO)C[C@@H](C)[C@@H](CN(C)S(=O)(=O)c1ccc(Cl)cc1)OCCCC[C@H](C)O2 | inactive: -1.22% |
| CC(C)NC(=O)N(C)C[C@@H]1OCCCC[C@@H](C)Oc2ccc(NC(=O)CCC(F)(F)F)cc2C(=O)N([C@@H](C)CO)C[C@H]1C | inactive: -2.11% |
| CC(C)NC(=O)N(C)C[C@@H]1Oc2ncc(C#CCc3ccccc3)cc2C(=O)N([C@H](C)CO)C[C@H]1C | inactive: -1.28% |
| CSc1ncnc2c1ncn2CCCNc1ccc(C)c(C)c1 | inconclusive: 33.2% |
| OC(CCc1cccc(Cl)c1)c1cccs1 (stereo unspecified) | inconclusive: 20.2% |
| C[C@H](CO)N1C[C@H](C)[C@H](CN(C)C(=O)CN2CCOCC2)Oc2ncc(C#C[C@@H](C)O)cc2C1=O | inconclusive: 51.2% |
